Test results from US7217525 (Johns Hopkins, dated 2007).
Results are given in words; binding and its absence hold for the method and conditions named. Binding seen in cells or lysates may run through a third protein. Binding calls can cover weak binding; strength is not graded here.

Assays:
[1] = target: AMPA receptor subunit GluR2; assay: co-immunoprecipitation from co-transfected HEK-293 cells
[2] = target: AMPA receptor subunit GluR3; assay: as above

binding [1]: binds
binding [2]: binds
B1: C-terminal myc-tagged version of Narp (designated myc-Narp) (ligand, not shown: small tags and cut ends)
chain: AGQAQDNPIPGSRFVCTALPPEAARAGCPLPAMPMQGGALSPEEELRAAVLHWRETVVQQKETLGAQREAIRELTSKLARCEGLAGGKARGTGATGKDTMGDLPRDPGHVVEQLSRSLQTLKDRLESLELQLHTNASNAGLPSDFREVLQRRLGELERQLLRKVAELEDEKSLLHNETSAHRQKTENTLNALLQRVTELERGNSAFKSPDAFKVSLPLRTNYLYGKIKKTLPELYAFTICLWLRSSASPGIGTPFSYAVPGQANEIVLIEWGNNPIELLINDKVAQLPLFVSDGKWHHICITWTTRDGMWEAFQDGEKLGTGENLAPWHPIKPGGVLILGQEQDTVGGRFDATQAFVGELSQFNIWDRVLRAQEIINIANCSTNMPGNIIPWVDNNVDVFGGASKWPVETCEERLLDL
